Publication doi:10.1101/2020.06.25.171694
These are yes or no findings as the source states them, for the method shown. Binding seen in cells or lysates may run through a third protein. Binding calls can cover weak binding; strength is not graded here. For part of these data: Sequences can lack the tags named with a protein. Blank lines part the entries; values can stand above or below the molecule they belong to.

Legend:
[1] = target: T1, Heh1-L^GFP (S. cerevisiae) (UniProt Q03707); experiment: co-IP
T1 sequence: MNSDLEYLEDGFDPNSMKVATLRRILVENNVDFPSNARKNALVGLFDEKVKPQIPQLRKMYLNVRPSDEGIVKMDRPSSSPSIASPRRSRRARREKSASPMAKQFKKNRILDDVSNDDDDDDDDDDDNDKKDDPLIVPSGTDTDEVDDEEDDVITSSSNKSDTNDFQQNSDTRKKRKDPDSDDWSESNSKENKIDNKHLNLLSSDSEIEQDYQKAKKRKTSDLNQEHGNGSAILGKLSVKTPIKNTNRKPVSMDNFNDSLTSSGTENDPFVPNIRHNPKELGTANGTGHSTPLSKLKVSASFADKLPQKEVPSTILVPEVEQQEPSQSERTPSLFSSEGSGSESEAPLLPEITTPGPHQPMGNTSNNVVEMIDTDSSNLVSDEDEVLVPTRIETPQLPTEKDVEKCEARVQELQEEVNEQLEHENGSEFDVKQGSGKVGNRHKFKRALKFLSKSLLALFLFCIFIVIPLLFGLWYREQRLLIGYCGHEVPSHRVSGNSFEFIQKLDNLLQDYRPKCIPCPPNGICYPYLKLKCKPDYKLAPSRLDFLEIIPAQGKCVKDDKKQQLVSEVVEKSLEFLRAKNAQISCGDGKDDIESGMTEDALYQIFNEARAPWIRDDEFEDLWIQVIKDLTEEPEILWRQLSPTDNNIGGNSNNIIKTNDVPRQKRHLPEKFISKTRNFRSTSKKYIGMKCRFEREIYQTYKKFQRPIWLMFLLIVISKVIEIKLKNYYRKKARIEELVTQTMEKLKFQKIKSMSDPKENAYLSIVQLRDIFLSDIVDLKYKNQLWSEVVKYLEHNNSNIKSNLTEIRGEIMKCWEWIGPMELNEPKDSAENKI

[2] = target: Heh1-S^GFP (S. cerevisiae); experiment: co-IP

binding [1]: binds
Molecule: Heh1-S^6HA (S. cerevisiae)

binding [1]: no binding
Molecule: full-length Chm7 (co-immunoprecipitation) (S. cerevisiae)

binding [2]: binds
B1: Heh1-L^6HA (protein, UniProt Q03707 1-834)
chain: T1 sequence
